The results in this text go back to patent US20080026947.

The chains behind the UniProt entries cited, without tags or fusion partners. Where a name states a change or a piece, a line headed by the entry shows the natural chain unless it says otherwise.
UniProt Q04609: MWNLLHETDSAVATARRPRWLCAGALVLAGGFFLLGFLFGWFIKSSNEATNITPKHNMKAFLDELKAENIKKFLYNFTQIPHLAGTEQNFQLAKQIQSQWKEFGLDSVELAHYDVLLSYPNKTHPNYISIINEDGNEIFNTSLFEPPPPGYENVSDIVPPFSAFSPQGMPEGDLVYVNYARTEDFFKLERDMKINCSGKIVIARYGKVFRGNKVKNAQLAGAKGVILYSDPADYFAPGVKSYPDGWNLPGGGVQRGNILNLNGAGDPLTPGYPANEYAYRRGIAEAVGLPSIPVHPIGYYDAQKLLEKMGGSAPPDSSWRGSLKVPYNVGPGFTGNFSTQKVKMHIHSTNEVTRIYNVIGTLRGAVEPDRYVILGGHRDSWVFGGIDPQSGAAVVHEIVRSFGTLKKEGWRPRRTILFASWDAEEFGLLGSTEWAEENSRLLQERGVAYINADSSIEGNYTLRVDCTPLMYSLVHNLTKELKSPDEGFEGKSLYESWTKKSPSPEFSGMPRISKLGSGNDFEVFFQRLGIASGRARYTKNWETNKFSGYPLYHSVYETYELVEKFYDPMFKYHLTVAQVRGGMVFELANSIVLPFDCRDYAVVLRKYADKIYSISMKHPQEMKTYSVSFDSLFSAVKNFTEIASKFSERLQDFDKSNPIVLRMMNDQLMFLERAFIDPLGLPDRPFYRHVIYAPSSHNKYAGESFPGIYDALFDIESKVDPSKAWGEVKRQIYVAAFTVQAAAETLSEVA

Construct, isoform or probe ends are uncertain for at least one entry.

This data set concerns the target PSMA on LNCaP cells (prostate specific membrane antigen) (Homo sapiens) (UniProt Q04609). Description: activity in cells. Conditions: RNA aptamer with 10 T deoxynucleotides appended at 3' end, reverse (3'-3') linkage at 3' terminus as stated (3'->5'), rapid uptake in nearly all LNCaP (PSMA+) cells at 1 uM, 15-45 min, limited to small percentage of PSMA-negative PC3 cells, protein on the cell surface, protein details: endogenous.

Take “GGGAGGACGAUGCGGAUCAGCCAUGUUUACGUCACUCCUUGUCAAUCCUCAUCGGCTTTTTTTTTT [5'-FAM-A10-3:T[10]]”: the “functional effect of the aptamer” value is listed as “active”.
